Results filed as inconclusive are left out. How the source made its calls: active means survival T/C of 150% or more; inactive means T/C below 125% in these data.
Tested on: BDF1 mice, s.c. Lewis lung carcinoma, T/C %
Test: NCI In Vivo Anticancer Drug Screen. Data for tumor model Lewis Lung Carcinoma (subcutaneous) in B6D2F1 (BDF1) mice
Conditions: endpoint: median survival time, schedule: Q01DX009 (ip), higher = longer survival
Experimental: The antitumor activity of compounds was measured in mice bearing transplantable tumors. Survival or tumor size were measured and the results are expressed as the measurement made in the treated group (T) divided by the measurement made in the vehicle treated control group (C). The tumor model used in this assay is Lewis Lung Carcinoma (subcutaneous) in B6D2F1 (BDF1) mice

Measured: T/C

COc1c(O)cc2c(c1OC)-c1ccc(OC)c(=O)cc1[C@@H](NC(C)=O)CC2
inactive: dose: 0.63 mg/kg/injection, vehicle: saline with Tween-80 = 99 % of control | dose: 1.25 mg/kg/injection, vehicle: saline with Tween-80 = 104 % of control | dose: 2.5 mg/kg/injection, vehicle: saline with Tween-80 = 103 % of control | dose: 5.0 mg/kg/injection, vehicle: saline with Tween-80 = 104 % of control

COc1cc2c(c(OC)c1OC)-c1ccc(OC)c(=O)cc1[C@@H](N)CC2
inactive: dose: 0.63 mg/kg/injection, vehicle: Klucel (hydroxypropylcellulose) (HPC) 112 % of control | dose: 1.25 mg/kg/injection, vehicle: Klucel (hydroxypropylcellulose) (HPC) 117 % of control | dose: 2.5 mg/kg/injection, vehicle: Klucel (hydroxypropylcellulose) (HPC) 122 % of control | dose: 5.0 mg/kg/injection, vehicle: Klucel (hydroxypropylcellulose) (HPC) 101 % of control

Reference: PubChem BioAssay AID270 (DTP/NCI, 2004)
